As a reminder, the inhibition is the share of the control response that was lost under treatment.

Chains of the proteins cited; added tags and fusions are not shown.
UniProt P11940, whole entry: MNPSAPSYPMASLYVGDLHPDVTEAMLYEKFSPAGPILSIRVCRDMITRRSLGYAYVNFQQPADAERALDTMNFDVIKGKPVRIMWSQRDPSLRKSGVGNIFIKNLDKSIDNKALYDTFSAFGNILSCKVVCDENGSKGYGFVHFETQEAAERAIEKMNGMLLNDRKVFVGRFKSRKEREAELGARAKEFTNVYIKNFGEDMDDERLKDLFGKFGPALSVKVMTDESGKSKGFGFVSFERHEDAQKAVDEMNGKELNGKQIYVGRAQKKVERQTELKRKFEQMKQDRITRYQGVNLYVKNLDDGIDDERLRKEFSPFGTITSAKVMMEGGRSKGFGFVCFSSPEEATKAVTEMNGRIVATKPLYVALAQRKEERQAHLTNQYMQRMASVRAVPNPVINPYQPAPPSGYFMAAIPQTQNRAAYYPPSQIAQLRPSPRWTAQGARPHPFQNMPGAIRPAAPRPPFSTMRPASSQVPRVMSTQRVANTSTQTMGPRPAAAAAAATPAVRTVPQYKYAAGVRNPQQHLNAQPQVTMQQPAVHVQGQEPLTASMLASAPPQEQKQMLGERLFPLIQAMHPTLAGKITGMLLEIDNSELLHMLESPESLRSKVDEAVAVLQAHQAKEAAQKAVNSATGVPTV

The list shows a part of the results.

This assay addresses Polyadenylate-binding protein 1 (Homo sapiens) (UniProt P11940). Briefly: PABP poly(A) RNA binding inhibitors, primary screen, biochemical, fluorescence polarization, uHTS (AID 2014). The following applies: confirmation repeats, at 20 µM, stronger effect = higher value. In general terms: In fluorescence polarisation assays a small probe gives low polarisation when free and higher when bound to something large.
In the case of `CCCN1CCC(Nc2cc(OC)cc(OC)c2)CC1`, the inhibition was determined as 30.1%.

For the origin of these results see PubChem BioAssay AID2014 (Sanford-Burnham Center for Chemical Genomics, 2009).
